# Reference: US7063965
# Protein sequences, listed by entry. Tags and fused reporters are not part of them. Lines headed by an entry give the natural chain unless they say otherwise; changes in a name come on top. Chains listed by the source or under a name are the forms on record and can include a tag or linker. Residues count along the entry.
# UniProt O15123: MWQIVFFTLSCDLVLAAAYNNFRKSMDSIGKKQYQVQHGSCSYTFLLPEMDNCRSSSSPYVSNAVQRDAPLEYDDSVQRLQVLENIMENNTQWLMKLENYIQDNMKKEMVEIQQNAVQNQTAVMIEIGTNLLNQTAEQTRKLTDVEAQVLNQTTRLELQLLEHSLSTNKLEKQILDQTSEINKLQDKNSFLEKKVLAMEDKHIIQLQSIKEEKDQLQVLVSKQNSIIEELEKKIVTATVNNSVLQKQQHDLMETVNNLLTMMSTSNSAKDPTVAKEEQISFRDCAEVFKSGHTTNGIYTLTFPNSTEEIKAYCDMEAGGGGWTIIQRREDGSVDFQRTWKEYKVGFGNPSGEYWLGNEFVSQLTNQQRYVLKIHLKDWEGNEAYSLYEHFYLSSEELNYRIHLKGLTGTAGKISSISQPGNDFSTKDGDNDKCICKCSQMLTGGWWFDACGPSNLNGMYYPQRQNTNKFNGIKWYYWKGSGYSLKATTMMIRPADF
# UniProt O08538, residues 20-498: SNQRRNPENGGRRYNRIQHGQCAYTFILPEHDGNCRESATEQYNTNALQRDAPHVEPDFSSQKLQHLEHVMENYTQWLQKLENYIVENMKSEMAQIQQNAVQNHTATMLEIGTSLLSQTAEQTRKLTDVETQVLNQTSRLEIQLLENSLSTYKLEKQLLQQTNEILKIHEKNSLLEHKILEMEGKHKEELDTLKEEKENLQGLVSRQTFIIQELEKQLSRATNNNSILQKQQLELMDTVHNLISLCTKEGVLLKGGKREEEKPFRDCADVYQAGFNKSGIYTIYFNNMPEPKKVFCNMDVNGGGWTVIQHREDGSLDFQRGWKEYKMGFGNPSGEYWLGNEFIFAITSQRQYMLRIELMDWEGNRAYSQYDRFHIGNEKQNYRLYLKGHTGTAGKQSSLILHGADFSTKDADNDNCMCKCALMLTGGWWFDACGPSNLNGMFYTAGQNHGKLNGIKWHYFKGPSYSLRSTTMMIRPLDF
# UniProt Q02763: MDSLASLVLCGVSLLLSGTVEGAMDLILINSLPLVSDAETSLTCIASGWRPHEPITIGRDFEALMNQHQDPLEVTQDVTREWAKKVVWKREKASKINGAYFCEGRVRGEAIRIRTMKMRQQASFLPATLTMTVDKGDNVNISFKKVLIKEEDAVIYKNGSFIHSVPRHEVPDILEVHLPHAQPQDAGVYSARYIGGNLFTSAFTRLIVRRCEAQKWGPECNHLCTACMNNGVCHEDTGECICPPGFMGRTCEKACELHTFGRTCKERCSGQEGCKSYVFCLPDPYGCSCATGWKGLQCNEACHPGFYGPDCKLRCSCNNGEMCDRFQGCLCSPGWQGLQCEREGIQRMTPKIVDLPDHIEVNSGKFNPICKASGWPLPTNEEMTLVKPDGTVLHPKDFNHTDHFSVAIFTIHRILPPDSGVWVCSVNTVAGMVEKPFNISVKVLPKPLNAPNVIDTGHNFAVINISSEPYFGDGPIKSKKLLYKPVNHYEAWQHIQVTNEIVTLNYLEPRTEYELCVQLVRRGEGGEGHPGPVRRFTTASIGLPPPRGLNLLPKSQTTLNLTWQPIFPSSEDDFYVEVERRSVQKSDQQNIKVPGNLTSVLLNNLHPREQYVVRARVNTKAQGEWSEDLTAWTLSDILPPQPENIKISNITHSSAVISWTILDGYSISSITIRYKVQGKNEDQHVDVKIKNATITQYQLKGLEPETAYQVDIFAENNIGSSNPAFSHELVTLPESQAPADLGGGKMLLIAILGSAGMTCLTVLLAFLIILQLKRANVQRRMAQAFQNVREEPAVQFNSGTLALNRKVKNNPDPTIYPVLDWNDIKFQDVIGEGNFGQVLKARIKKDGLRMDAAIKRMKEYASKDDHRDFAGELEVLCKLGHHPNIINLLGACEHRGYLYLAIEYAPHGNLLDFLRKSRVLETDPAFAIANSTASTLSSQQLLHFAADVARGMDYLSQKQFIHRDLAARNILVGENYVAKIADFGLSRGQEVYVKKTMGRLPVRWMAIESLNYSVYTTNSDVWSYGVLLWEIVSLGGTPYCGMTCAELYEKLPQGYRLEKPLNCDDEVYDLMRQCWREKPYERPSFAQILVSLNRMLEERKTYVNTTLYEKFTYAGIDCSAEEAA
# rat TIE-2 receptorbody (entire extracellular portion of the rat TIE-2 receptor fused to human IgG1 Fc) (A0ABK0L6J5, form named): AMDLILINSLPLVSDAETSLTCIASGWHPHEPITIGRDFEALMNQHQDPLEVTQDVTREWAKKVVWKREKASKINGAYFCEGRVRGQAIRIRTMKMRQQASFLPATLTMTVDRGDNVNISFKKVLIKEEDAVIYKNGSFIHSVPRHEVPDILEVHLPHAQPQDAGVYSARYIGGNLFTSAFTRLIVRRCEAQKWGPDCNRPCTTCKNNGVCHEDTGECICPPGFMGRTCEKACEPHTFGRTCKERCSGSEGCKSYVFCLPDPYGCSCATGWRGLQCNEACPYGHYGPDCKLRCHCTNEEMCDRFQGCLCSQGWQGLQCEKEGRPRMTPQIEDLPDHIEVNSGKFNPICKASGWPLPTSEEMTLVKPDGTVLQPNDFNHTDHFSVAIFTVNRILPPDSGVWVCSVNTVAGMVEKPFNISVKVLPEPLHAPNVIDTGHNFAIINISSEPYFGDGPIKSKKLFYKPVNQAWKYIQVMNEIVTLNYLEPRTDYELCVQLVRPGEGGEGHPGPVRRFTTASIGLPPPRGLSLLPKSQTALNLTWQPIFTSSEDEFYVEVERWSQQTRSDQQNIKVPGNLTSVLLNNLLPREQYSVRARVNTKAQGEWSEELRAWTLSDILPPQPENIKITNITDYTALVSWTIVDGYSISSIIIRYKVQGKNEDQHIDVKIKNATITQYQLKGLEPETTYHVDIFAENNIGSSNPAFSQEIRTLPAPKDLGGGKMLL
# Results are given in words; binding and its absence hold for the method and conditions named. Some binding calls cover weakened binding; strength is not graded here.
# Tests used:
# [1] = target: rat TIE-2 receptorbody (entire extracellular portion of the rat TIE-2 receptor fused to human IgG1 Fc) (rat; human); assay: SPR (BIAcore), medium preincubated with excess soluble TIE-2 RB
# [2] = target: rat TIE-2 receptorbody (entire extracellular portion of the rat TIE-2 receptor fused to human IgG1 Fc) (rat; human); assay: SPR (BIAcore), 10x conditioned medium, TIE-2-specific binding activity
# [3] = target: rat TIE-2 receptorbody (entire extracellular portion of the rat TIE-2 receptor fused to human IgG1 Fc) (rat; human); assay: SPR (BIAcore), 10x conditioned medium over immobilised rat TIE-2 IgG, with or without soluble receptorbody
# [4] = target: rat TIE-2 receptorbody (entire extracellular portion of the rat TIE-2 receptor fused to human IgG1 Fc) (rat; human); assay: SPR (BIAcore), conditioned medium over immobilised rat TIE-2 RB, preincubation with 25 µg/ml soluble rat TIE-2 RB
# [5] = target: human TIE-2 ligand 2 (human) (UniProt O15123); assay: staining of fixed, permeabilised transfected COS-7 cells with TIE-2 RB, anti-human IgG-alkaline phosphatase
# [6] = target: mouse TIE-2 ligand (clone pJFE14 encoding TIE-2 ligand, ATCC 75910) expressed in COS-7 cells (mouse) (UniProt O08538); assay: as above
# [7] = target: T1, human TIE-2 receptorbody (human) (UniProt Q02763+P01857); assay: SPR (BIAcore), COS supernatant over immobilised human TIE-2 RB, with or without soluble receptorbody
# [8] = target: T1, human TIE-2 receptorbody (human); assay: SPR (BIAcore), COS supernatant over immobilised human TIE-2 RB, preincubation with 25 µg/ml soluble human TIE-2 RB
substance,measurement,setting,value
TIE-2 ligand in C2C12-ras conditioned medium (from UniProt O08538 20-498),binding,[1],binds
same,binding,[2],binds
same,binding,[3],binds
same,binding,[4],binds
rat TIE-2 receptorbody (entire extracellular portion of the rat TIE-2 receptor fused to human IgG1 Fc) (from UniProt A0ABK0L6J5 19-740) (Fc fusion),binding,[5],binds
same,binding,[6],binds
human TIE-2 ligand 2 (from UniProt O15123 19-496),binding,[7],binds
same,binding,[8],binds
